Data: PubChem BioAssay AID493014 (National Center for Advancing Translational Sciences (NCATS), 2011)
The whole screen tested about 340,000 compounds, of which about 170 (0.05%) were called active. Inconclusive means that the source gave no clear call. Such entries were picked first, then a sample of the others. The call rests on the fitted dose curve; in most records, active means well fitted inhibition curve with a large enough effect in the signal ratio, with a control signal flat (not every such curve was filed as active); inconclusive means small, poorly fitted or top-dose-only effect, or effect the other way, or a change in a side signal; inactive means flat fitted curve, though single readings scatter; the % refers to the signal ratio. Potencies of inconclusive entries are doubtful fits and often do not repeat.

Test: qHTS Assay to Find Inhibitors of Chronic Active B-Cell Receptor Signaling;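 on activity change, negative = inhibition: plate controls were basal doxycycline-induced cells for no effect and cells given 10 µM MG132 for full effect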
Conditions: ABC-DLBCL IkBa-CBG/CBR reporter, luminescence ratio (green luciferase fused to IkBa over red control in TMD8 lymphoma cells), 4 h; activity change, negative = inhibition: at 46.1 µM (top of the series)
In short: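 Doxycycline induced both beetle luciferases in TMD8 lymphoma cells; IKK-driven degradation limits the IkappaBalpha-fused green signal, while red luminescence normalises for cell number and nonspecific effects. Compounds tested up to 46 uM, 4 hrs.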
Potency means the concentration at half of the fitted maximal effect.

| SMILES | activity change, negative = inhibition | Potency |
| --- | --- | --- |
| Cc1ccccc1CSc1nc2c(sc3ccccc32)c(=O)n1CCCOC(C)C | inconclusive: 21.7% |  |
| CC(=O)OC(C)(C)C#CCN1CCCC1 |  | inconclusive: 5.17 µM [falling, single point] |
| COc1ccc(C(=O)N/N=C/c2ccc(OC)c(COc3ccc(F)cc3)c2)cc1 | inconclusive: 9.71% |  |
| Cc1cc(Cl)nc2ccc(Cc3ccc4nc(Cl)cc(C)c4c3)cc12 | inconclusive: -9.81% |  |
| Cc1cc(C)nc(SCC(=O)Nc2nc(-c3ccccc3)c(-c3ccccc3)o2)n1 | inconclusive: -0.412% |  |
| C/[N+]([O-])=C\C1C(=O)CC(C)(C)CC1=O | inconclusive: -15% |  |
| COc1ccc(N(C)S(=O)(=O)c2cccc(C(=O)N3CCN(c4ccccc4)CC3)c2)cc1 | inconclusive: 15.3% |  |
| COc1cccc(CNC(=O)C(NS(=O)(=O)c2ccc3c(c2)CCN3C(C)=O)C(C)C)c1 (stereo not drawn) | inactive: 1.93% |  |
| COc1ccc(C(CC(=O)c2ccccc2)S(=O)(=O)c2ccccc2)cc1 (stereo not drawn) | inconclusive: 6.16% |  |
| CCOc1ccccc1N=Nc1c(C)[nH]n(C(N)=S)c1=O |  | inconclusive: 5.62 µM [falling, single point] |
| Cc1ccc(C(C(=O)NC2CCCC2)N(C(=O)c2csnn2)C2CC2)cc1 (stereo not drawn) |  | inconclusive: 35.5 µM [rising, partial curve, poor fit] |
| CCc1ccc(Nc2ncnc3c2cnn3-c2cc(Cl)ccc2C)cc1 | inconclusive: 1.96% |  |
| CCCC1(C(=O)OCC)NC(c2ccc(N(C)C)cc2)C2C(=O)N(c3ccc4c(c3)OCCO4)C(=O)C21 (stereo not drawn) | inconclusive: -8.45% |  |
| CCCCCCCCCS(=O)(=O)N/N=C/c1cccc([N+](=O)[O-])c1 |  | inconclusive: 16.4 µM [falling, single point] |
| CCSc1nnc(N(CCC#N)CCC#N)s1 | inconclusive: -16% |  |
| Cc1cc(=O)n2nc(N3CCCC(C(=O)NCc4ccc(F)cc4)C3)sc2n1 (stereo not drawn) | inactive: -1.25% |  |
| Cc1ccc2c(c1)c1c3n2CCCNC3CCC1 (stereo not drawn) | inconclusive: -9.44% |  |
| COc1ccc(S(=O)(=O)N(C)C)cc1NC(=O)CCCSc1ccccc1 | inconclusive: 26.9% |  |
| Cc1cc(C2=NNC(=NC3CC3)SC2)c(C)n1-c1ccccc1F | inactive: -0.879% |  |
| COc1ccccc1NC(=O)C(=O)N1N=C(C(C)C)CC1(O)C(F)(F)F (stereo not drawn) | inconclusive: 481% |  |
| Nc1c(-c2nc(-c3cccs3)no2)nnn1-c1cccc(Cl)c1 | inconclusive: -0.592% |  |
| CC[C@@]1(c2ccccc2OC)ON(c2ccccc2C(F)(F)F)C1=O | inconclusive: -28.7% |  |
| CN(CC(=O)Nc1ccc(F)c(Cl)c1)S(=O)(=O)c1ccc2c(c1)n(C)c(=O)c(=O)n2C | inactive: -11.8% |  |
| COc1ccc(OC)c(/C=C2\SC(=S)N(N3CCOCC3)C2=O)c1 |  | inconclusive: 12.6 µM [falling, partial curve, poor fit] |
| COc1ccc(NC(=S)Nc2ccccc2)cn1 | inactive: -20.1% |  |
| CC1=NN(c2ccccc2)C(=O)/C1=C/C=C/C=C/N(C)C |  | inconclusive: 7.08 µM [rising, partial curve] |

| SMILES | activity change, negative = inhibition | Potency |
| --- | --- | --- |
| CC(=O)Oc1ccc(/C=N/NC2=NS(=O)(=O)c3ccccc32)cc1 | inconclusive: -0.267% |  |
| Cc1c(NC(=O)/C(C#N)=C/c2c(Oc3ccccc3)nc3ccccn3c2=O)c(=O)n(-c2ccccc2)n1C |  | active: 18.4 µM |
| Cc1ccc(CNC(=O)CN(C(=O)C2(C)CC(=O)N=C3C=CC=CN32)c2cccc(C)c2C)cc1 (stereo not drawn) | inactive: -4.81% |  |
| COC(=O)c1ccccc1NC(=O)CCS(=O)(=O)c1ccc(Br)cc1 |  | inconclusive: 31.6 µM [falling, partial curve, poor fit] |
| CCCCCc1nc2c(=O)n(C)c3ccccc3c2o1 |  | inconclusive: 31.6 µM [falling, single point] |
| Cc1ccc(S(=O)(=O)Nc2ccccc2C(=O)NCc2cccnc2)cc1 | inconclusive: 1.97% |  |
| CN(C(=O)c1ccccc1C(=O)OCC(=O)Nc1ccc(OC(F)F)cc1)c1ccccc1 |  | inconclusive: 23.1 µM [falling, partial curve, poor fit] |
| O=C(O)c1nnn(-c2ccc(F)cc2F)c1-c1ccccc1 | inconclusive: 1.57% |  |
| Cc1cc(OCC(=O)NNC(=S)NC(=O)c2cccs2)ccc1Cl |  | inconclusive: 35.5 µM [rising, single point] |
| Cc1ccc(S(=O)(=O)NCc2ccc3c(c2)cc(C)n3C)cc1 | inactive: -1.01% |  |
| O=C(Nc1ccc(C2CC2(Cl)Cl)cc1)c1ccccc1Br (stereo not drawn) | inconclusive: -15.6% |  |
| CCOC(=O)C1=C(Cc2ccc(OC)cc2)C(=O)c2ccccc2C1=O |  | inconclusive: 20.6 µM [falling, partial curve] |
| O=C(COc1ccccc1)Nc1nonc1NC(=O)COc1ccccc1 |  | inconclusive: 32.6 µM [falling, single point] |
| COc1ccc(NCc2nnc(SCC(=O)c3ccc(OC)cc3)o2)cc1 | inactive: -1.69% |  |
| CC(C)(C)OC(=O)CC[C@@H](C(=O)NCCCCCCCCCCC(=O)N1CCN(C(=O)OC(C)(C)C)CC1)n1cc(CCCCCNC(=O)OC(C)(C)C)nn1 | inactive: 3.62% |  |
| COc1ccc(CNC(=O)c2cnc3scc(C)n3c2=O)cc1 | inconclusive: -13.8% |  |
| CNC(=S)Nc1ccc(Br)cc1 | inactive: 7.73% |  |
| COc1ccc(-c2ncncc2-c2ccccc2)c(O)c1 | inconclusive: 8.28% |  |
| O=C(Nc1ccccc1)Nc1nnc(Cc2ccccc2F)s1 | inconclusive: 3.45% |  |
| Cc1ccc(S(=O)(=O)N(CC(=O)Nc2cccnc2)c2ccccc2C)cc1 | inconclusive: 14.2% |  |
| CS(=O)(=O)N1CCN(c2nc3ccc(Cl)cc3s2)CC1 | inconclusive: 5.64% |  |
| O=C(NC1CC(=O)N(c2ccc(F)cc2)C1)C(=O)c1c[nH]c2ccccc12 (stereo not drawn) |  | inconclusive: 6.51 µM [falling, full curve, poor fit] |
| Cc1ccc(CNC(=O)C2CC(c3ccc(C(F)(F)F)cc3)=NO2)o1 (stereo not drawn) | inconclusive: -12.4% |  |
| CN1CCN(S(=O)(=O)c2ccc(-c3ccc(Cl)cc3)cc2)CC1 | inconclusive: 2.94% |  |
| Cc1c(C(=O)N2CCN(S(=O)(=O)c3ccccc3)CC2)oc2ccc(Br)cc12 | inactive: 3.49% |  |
| CCc1ccc(C(=O)NCc2cccs2)s1 | inconclusive: -3.11% |  |

| SMILES | activity change, negative = inhibition | Potency |
| --- | --- | --- |
| Cc1sc(NC(=O)c2ccco2)nc1-c1ccccc1 |  | inconclusive: 29.1 µM [falling, single point] |
| O=[N+]([O-])c1cc(C(F)(F)F)cc([N+](=O)[O-])c1NN=C1CCCCC1 |  | inconclusive: 13 µM [rising, partial curve, poor fit] |
| COc1ccccc1CNC(=O)C1CCN(S(=O)(=O)c2ccc3c(c2)CC(C)N3C(C)=O)CC1 (stereo not drawn) | inconclusive: 8.72% |  |
| O=C(/C=C/c1ccccc1[N+](=O)[O-])N1CCN(c2ccccc2F)CC1 | inactive: -8.97% |  |
| C=CCC[C@H](Cc1ccc(F)cc1)C(=O)OC[C@@H](Cc1c[nH]c2ccccc12)NC(=O)[C@@H](CC=C)CC(=O)N[C@H](CO)Cc1ccccc1 | inconclusive: 2.1% |  |
| Cc1cc(=O)[nH]c(N/N=C2/CCCC/C2=C\c2ccccc2)n1 | inactive: 4.4% |  |
| O=C(Nc1nccs1)c1ccc(-c2cccc([N+](=O)[O-])c2)o1 | inconclusive: 14.6% |  |
| Cc1ccccc1NC(=O)Cn1c(O)c(N=NC(=O)c2ccccc2O)c2ccccc21 |  | inconclusive: 1.84 µM [falling, full curve] |
| Cc1ccc(-n2nc(C)c3c2NC2=C(C(=O)CC(C)(C)C2)C3c2ccccc2OCC(=O)O)cc1 (stereo not drawn) | inconclusive: -0.393% |  |
| Cc1nc2sccn2c(=O)c1S(=O)(=O)NCCc1ccccc1 |  | inconclusive: 10 µM [falling, partial curve] |
| Cc1ccc(NS(=O)(=O)c2ccc(N3CCN(c4ccc(O)cc4)CC3)c([N+](=O)[O-])c2)c(C)c1 | inconclusive: 13.2% |  |
| Cc1ccccc1NC(=S)/C(=C(\[O-])c1cc(C)n(Cc2ccccc2Cl)c1C)[n+]1ccccc1 | inconclusive: -17.2% |  |
| Cc1cccc(C2Nc3ccccc3C(=O)N2c2ccccc2)n1 (stereo not drawn) | inconclusive: -10.9% |  |
| Cc1cc(-n2c(SCC(=O)Nc3ccc(F)c(F)c3)nc3n[nH]c(C)c3c2=N)ccc1Cl | inactive: 15.7% |  |
| C[C@]1(OC(=O)/C=C/c2ccccc2)C[C@@H](O)[C@]2(O)C=CO[C@@H](O[C@@H]3O[C@H](CO)[C@@H](O)[C@H](O)[C@H]3O)[C@@H]21 | inactive: -0.818% |  |
| CCCCc1nc2cc(C(=O)N3CCN(c4nc(C)cnc4C)CC3)ccc2o1 | inconclusive: 8.6% |  |
| CCOC(=O)C1CCN(C(=O)COC(=O)c2c(C)c(CC)nc3ccccc23)CC1 | inconclusive: -16% |  |
| CCOc1cc(C(C(=O)NCC2CCCO2)N(C(=O)Cn2nnc3ccccc32)c2ccc(C(C)=O)cc2)ccc1O (stereo not drawn) | inactive: -0.127% |  |
| C[C@H]1CCC(=O)N(CCSc2ccc(Br)cc2)CC1 | inconclusive: 11.4% |  |
| COc1ccccc1NS(=O)(=O)c1cc(-c2cnc(C3CC3)o2)ccc1C |  | inconclusive: 3.16 µM [falling, partial curve, poor fit] |
| CN1CCN(C(CNC(=O)c2ccc(Br)o2)c2ccc(F)cc2)CC1 (stereo not drawn) | inactive: 8.08% |  |
| O=C(Cn1nnc(-c2ccc(N3CCOCC3)cc2)n1)N1CCOCC1 | inactive: -0.0643% |  |
| CCn1c(SCc2cccc(F)c2)nnc1-c1ccncc1 | inconclusive: 0.737% |  |
| Oc1csc(Cc2nc(-c3ccccc3F)cs2)n1 |  | inconclusive: 0.631 µM [falling, full curve] |
| O=C(NC(NC(=S)Nc1c(Cl)cccc1Cl)C(Cl)(Cl)Cl)OCc1ccccc1 (stereo not drawn) | inconclusive: 12.8% |  |
| COc1ccc(-n2nc3c(c2NC(=O)C2CC(=O)N(c4ccccc4)C2)CS(=O)(=O)C3)cc1 (stereo not drawn) | inactive: -2.95% |  |

Taken from the results shown, six compounds:

| SMILES | activity change, negative = inhibition | Potency |
| --- | --- | --- |
| O=C(Nc1ccc(C2CC2(Cl)Cl)cc1)c1ccccc1Br (stereo not drawn) | inconclusive: -15.6% |  |
| CCOC(=O)C1=C(Cc2ccc(OC)cc2)C(=O)c2ccccc2C1=O |  | inconclusive: 20.6 µM [falling, partial curve] |
| O=C(COc1ccccc1)Nc1nonc1NC(=O)COc1ccccc1 |  | inconclusive: 32.6 µM [falling, single point] |
| COc1ccc(NCc2nnc(SCC(=O)c3ccc(OC)cc3)o2)cc1 | inactive: -1.69% |  |
| CC(C)(C)OC(=O)CC[C@@H](C(=O)NCCCCCCCCCCC(=O)N1CCN(C(=O)OC(C)(C)C)CC1)n1cc(CCCCCNC(=O)OC(C)(C)C)nn1 | inactive: 3.62% |  |
| COc1ccc(CNC(=O)c2cnc3scc(C)n3c2=O)cc1 | inconclusive: -13.8% |  |
